The other results are listed elsewhere or left out.

Amino acid sequences for entries named in this document (tags omitted). A change or cut given only in a name is not applied to a line headed by its entry.
UniProt Q8NBT0: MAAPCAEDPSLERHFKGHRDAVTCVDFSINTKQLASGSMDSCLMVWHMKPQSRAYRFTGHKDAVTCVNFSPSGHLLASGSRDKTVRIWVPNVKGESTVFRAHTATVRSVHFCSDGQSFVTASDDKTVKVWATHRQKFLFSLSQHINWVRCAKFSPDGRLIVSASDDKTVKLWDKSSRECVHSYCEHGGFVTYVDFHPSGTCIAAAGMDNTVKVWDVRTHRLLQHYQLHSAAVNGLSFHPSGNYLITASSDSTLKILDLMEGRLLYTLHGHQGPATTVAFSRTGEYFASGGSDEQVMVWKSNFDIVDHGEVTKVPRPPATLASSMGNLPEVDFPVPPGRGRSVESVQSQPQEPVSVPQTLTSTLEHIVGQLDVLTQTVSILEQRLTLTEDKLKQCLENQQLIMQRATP
UniProt Q9NW61: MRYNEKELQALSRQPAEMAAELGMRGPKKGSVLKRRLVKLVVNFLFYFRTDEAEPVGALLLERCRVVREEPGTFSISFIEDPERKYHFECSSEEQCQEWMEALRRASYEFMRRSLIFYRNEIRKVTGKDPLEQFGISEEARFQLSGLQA
UniProt Q8IYS1: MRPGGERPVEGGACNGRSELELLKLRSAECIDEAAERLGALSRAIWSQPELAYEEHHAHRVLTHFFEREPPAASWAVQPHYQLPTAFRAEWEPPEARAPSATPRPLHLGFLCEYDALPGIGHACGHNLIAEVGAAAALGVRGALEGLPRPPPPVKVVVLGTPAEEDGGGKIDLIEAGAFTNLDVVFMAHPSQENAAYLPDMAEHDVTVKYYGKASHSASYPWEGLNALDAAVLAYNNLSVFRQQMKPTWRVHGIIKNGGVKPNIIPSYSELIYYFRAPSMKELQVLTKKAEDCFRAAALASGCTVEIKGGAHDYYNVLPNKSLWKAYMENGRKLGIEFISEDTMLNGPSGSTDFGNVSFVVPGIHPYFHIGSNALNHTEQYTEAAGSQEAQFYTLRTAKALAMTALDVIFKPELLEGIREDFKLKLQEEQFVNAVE
UniProt Q8NEY8: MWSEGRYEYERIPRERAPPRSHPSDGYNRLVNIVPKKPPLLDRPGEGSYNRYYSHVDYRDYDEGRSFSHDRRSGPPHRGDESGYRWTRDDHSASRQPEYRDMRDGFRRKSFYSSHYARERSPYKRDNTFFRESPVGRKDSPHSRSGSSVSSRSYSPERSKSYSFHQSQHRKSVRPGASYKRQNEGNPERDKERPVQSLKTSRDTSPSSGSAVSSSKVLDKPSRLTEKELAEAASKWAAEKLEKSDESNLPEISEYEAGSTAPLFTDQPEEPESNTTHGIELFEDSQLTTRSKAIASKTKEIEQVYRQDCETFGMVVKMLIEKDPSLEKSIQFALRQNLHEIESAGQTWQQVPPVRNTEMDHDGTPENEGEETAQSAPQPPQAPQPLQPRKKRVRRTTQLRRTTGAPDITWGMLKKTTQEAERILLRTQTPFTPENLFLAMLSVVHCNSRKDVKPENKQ
UniProt Q9HCU8: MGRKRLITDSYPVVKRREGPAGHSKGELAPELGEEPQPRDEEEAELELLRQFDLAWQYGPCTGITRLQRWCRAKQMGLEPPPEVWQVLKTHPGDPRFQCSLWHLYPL
UniProt P53350, whole entry, looked up: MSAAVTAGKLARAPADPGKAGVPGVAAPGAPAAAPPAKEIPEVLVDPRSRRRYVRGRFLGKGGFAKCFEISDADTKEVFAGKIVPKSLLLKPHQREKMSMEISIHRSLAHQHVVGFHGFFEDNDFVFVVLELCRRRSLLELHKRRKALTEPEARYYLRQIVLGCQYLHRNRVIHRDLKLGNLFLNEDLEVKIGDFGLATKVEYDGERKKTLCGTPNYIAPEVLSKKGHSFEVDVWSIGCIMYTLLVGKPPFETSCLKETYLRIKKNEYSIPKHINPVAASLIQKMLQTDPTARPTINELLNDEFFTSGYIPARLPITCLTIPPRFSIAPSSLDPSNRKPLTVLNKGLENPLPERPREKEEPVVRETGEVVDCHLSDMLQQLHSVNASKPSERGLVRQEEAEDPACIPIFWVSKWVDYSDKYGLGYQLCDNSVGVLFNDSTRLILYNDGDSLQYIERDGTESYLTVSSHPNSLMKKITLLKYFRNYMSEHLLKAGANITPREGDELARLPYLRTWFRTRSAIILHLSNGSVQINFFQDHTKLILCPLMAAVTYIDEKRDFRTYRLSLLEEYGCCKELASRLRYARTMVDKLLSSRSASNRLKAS
UniProt P05423: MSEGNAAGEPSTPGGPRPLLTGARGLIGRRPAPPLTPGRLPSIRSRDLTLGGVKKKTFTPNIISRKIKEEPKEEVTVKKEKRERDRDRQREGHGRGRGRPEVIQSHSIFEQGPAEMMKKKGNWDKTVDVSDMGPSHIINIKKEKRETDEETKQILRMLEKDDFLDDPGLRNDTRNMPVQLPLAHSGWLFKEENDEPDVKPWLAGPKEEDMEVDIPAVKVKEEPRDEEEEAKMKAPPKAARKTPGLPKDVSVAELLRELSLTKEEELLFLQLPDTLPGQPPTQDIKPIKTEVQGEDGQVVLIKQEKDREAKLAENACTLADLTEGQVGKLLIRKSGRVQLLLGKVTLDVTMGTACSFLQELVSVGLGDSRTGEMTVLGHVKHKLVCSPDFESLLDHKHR
UniProt P62937, whole entry, looked up: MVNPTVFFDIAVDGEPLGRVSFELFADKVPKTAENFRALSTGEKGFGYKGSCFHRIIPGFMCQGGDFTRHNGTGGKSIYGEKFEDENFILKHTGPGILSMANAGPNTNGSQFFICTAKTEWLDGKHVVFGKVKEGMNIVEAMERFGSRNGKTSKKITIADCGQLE
UniProt Q9UKY4: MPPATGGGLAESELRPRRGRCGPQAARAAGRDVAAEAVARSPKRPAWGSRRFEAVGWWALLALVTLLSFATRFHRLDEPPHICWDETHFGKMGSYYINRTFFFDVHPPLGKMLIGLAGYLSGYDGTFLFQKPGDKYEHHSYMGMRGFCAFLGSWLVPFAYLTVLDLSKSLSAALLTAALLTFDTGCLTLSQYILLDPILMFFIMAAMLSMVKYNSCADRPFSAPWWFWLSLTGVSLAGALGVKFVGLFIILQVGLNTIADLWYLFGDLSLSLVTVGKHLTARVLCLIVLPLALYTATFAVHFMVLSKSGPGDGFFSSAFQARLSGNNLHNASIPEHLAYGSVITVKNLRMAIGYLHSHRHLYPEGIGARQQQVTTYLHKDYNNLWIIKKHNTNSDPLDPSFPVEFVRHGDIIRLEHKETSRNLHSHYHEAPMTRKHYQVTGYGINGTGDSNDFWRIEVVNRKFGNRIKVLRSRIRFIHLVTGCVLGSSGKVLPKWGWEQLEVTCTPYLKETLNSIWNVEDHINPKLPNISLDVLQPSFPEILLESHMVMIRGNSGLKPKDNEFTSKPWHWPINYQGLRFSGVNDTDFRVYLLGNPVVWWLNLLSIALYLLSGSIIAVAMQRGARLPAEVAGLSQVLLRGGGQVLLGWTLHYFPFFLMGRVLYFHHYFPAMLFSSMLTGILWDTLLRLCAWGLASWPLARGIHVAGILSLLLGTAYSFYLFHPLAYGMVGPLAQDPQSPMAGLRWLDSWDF
UniProt Q92871: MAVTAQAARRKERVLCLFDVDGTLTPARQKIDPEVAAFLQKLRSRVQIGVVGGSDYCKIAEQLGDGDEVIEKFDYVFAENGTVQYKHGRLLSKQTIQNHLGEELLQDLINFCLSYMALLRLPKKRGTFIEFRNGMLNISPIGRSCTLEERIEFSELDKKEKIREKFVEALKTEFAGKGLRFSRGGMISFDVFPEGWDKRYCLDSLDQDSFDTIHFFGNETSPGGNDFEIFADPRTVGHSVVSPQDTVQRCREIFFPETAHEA
UniProt P51805: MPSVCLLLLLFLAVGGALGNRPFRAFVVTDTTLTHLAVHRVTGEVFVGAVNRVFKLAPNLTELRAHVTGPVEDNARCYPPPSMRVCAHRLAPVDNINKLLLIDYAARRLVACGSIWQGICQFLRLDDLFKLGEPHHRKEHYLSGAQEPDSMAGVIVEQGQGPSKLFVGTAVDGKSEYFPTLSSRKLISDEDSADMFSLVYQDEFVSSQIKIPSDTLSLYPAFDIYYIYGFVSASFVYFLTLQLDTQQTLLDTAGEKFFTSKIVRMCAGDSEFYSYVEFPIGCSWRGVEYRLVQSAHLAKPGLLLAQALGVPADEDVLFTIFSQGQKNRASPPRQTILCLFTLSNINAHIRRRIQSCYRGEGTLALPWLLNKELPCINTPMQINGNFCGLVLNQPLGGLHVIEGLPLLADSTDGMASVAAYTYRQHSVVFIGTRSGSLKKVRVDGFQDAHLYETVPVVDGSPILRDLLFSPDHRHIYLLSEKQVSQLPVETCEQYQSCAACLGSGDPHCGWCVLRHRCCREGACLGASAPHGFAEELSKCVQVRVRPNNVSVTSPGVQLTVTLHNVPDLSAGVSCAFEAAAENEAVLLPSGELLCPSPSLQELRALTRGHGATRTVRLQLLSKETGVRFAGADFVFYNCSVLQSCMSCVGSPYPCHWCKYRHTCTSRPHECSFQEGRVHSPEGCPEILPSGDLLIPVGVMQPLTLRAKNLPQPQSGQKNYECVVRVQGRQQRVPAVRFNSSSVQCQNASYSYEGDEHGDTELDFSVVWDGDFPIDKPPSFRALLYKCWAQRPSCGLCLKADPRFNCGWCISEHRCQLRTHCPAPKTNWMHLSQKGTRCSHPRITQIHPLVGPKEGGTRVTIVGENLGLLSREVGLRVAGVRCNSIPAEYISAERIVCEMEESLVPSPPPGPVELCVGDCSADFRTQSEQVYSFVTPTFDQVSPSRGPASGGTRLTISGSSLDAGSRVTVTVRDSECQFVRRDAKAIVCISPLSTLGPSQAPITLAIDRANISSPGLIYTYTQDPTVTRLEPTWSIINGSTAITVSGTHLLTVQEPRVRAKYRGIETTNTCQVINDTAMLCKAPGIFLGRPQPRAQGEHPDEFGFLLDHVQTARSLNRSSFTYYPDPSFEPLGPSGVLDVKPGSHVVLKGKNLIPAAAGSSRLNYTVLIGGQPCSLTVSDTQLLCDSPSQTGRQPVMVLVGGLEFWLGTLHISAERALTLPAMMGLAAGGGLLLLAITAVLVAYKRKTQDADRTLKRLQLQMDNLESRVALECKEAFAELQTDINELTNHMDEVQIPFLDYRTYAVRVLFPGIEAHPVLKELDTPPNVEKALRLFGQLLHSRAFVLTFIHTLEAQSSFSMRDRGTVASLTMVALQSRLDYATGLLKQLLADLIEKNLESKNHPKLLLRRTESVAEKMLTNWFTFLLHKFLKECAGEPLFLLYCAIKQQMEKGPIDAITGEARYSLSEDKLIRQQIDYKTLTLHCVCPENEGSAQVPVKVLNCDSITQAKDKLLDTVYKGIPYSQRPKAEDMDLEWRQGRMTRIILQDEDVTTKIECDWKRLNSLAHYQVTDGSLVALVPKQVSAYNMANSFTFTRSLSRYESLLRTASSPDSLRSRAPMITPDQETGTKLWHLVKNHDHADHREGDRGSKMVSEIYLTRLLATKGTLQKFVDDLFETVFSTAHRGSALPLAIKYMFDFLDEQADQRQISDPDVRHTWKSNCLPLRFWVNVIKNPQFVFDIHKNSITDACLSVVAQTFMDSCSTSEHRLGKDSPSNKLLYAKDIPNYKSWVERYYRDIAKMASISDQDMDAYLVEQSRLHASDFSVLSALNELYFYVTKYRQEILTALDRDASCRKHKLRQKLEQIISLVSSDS
POLG, A0A3B3IS91, UniProt A0A3B3IS91, whole entry, looked up: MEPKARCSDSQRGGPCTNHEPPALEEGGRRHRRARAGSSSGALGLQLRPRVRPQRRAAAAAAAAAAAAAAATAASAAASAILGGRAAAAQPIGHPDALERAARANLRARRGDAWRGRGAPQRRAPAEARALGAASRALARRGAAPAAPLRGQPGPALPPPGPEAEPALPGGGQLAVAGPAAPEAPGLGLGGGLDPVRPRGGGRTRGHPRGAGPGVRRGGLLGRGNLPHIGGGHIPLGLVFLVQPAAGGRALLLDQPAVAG
UniProt Q15126: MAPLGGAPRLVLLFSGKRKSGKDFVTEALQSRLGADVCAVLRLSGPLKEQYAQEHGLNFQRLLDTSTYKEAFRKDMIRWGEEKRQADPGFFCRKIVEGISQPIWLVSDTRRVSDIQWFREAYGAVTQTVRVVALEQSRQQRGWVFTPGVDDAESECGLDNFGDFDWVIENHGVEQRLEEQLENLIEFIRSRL
UniProt Q9BT43: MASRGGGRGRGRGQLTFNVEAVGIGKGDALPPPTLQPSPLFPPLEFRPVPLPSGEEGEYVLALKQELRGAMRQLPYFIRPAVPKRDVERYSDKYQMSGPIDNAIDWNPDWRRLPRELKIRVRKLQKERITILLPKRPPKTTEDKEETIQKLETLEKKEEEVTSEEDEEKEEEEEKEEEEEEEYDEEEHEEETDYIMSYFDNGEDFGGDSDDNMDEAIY
UniProt Q9NR33: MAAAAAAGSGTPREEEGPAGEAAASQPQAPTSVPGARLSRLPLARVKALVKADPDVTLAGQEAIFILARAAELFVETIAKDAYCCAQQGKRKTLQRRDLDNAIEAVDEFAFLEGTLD
UniProt P0DPB5: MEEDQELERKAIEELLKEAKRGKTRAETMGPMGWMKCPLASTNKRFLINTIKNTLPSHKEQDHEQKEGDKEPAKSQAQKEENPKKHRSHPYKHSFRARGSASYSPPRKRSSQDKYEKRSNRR

Compound in one assay: CN1CCN(CCOc2cc(OC3CCOCC3)c3c(Nc4c(Cl)ccc5c4OCO5)ncnc3c2)CC1 [saracatinib]
Briefly: log2 fold change, soluble protein after heating vs DMSO (PISA); higher = thermal stabilisation; K562 cells, 10 uM, 30 min; active = over 0.2 and 3.5 SD of the protein, either way, in both replicates (recomputed). An outline of the steps: (§1)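 Values are thermal stability changes relative to control samples and are taken from duplicates. They are stated as log2 fold changes. Before quantification by TMTpro 16plex LC-MS/MS with equalised channel sums, K562 cells at 2×10^6 cells/mL were treated with 10 μM compound for 30 min, heated in aliquots for 3 min across 48°C-58°C, pooled, extracted in PBS with 0.5% NP-40 at 4°C, and centrifuged at 21,000xg for 90 min to give the soluble supernatant.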
Turning to POC1A (UniProt Q8NBT0), the log2 fold change is inactive: -0.251. For the target PLEKHJ1 (UniProt Q9NW61), the log2 fold change is inactive: -0.095. For the target PM20D2 (UniProt Q8IYS1), the log2 fold change was inactive: -0.026. Regarding PLOD2 isoform 2 (UniProt O00469), the log2 fold change is inactive: -0.024.

For the target PPHLN1 (UniProt Q8NEY8), the log2 fold change is inactive: -0.174. Consider PNPLA6 (UniProt Q8IY17), for which the log2 fold change was inactive: -0.029.

For POF1B isoform 1 (UniProt Q8WVV4), the log2 fold change is inactive: -0.349. Still for that read-out and setting: the same measure for PNN (UniProt Q9H307): inactive: -0.037.

Take POLR2J (UniProt P52435): the log2 fold change is inactive: -0.025. As to POLR1E isoform 1 (UniProt Q9GZS1), the log2 fold change is inactive: -0.054. On to PPIG (UniProt Q13427), for which the log2 fold change is inactive: 0.081. Consider POLR2E (UniProt P19388), for which the log2 fold change was inactive: -0.077. As for POLD4 (UniProt Q9HCU8), the log2 fold change was inactive: 0.081. With POLRMT (UniProt O00411), the log2 fold change was inactive: 0.074. PLK1 (UniProt P53350): the log2 fold change was inactive: 0.034. As to PLXND1 (UniProt Q9Y4D7), the log2 fold change was inactive: 0.46. Regarding POMT1 (UniProt Q9Y6A1), the log2 fold change is inactive: -0.014. Still for that read-out and setting: the same measure for POLB (UniProt P06746): inactive: -0.21. For the target POLR3D (UniProt P05423), the log2 fold change was inactive: 0.264. As to PPIA isoform 2 (UniProt P62937), the log2 fold change was inactive: -0.008.

On to POMT2 (UniProt Q9UKY4), for which the log2 fold change was inactive: -0.043. As to PMM1 (UniProt Q92871), the log2 fold change was inactive: 0.006.

With PLXNA3 (UniProt P51805), the log2 fold change was inactive: -0.112. On to POLG, A0A3B3IS91, for which the log2 fold change is inactive: -0.09.

As for PMVK (UniProt Q15126), the log2 fold change was inactive: -0.021.

Compound in the next assay: CN1CCN(c2nc(C3=C(c4c[nH]c5ccccc45)C(=O)NC3=O)c3ccccc3n2)CC1 [sotrastaurin]
The description is as above. An outline of the steps:
as §1
In the case of PM20D2 (UniProt Q8IYS1), the log2 fold change was inactive: 0.09. Same read-out and setting: the result for POM121C (UniProt A8CG34) reads inactive: -0.204; that for POT1 (UniProt Q9NUX5), inactive: -0.174. Same read-out and setting: the same measure for POLR3GL (UniProt Q9BT43): inactive: -0.155. On the same count and under the same terms, the result for PNN (UniProt Q9H307) reads inactive: -0.044. On to POLE4 (UniProt Q9NR33), for which the log2 fold change was inactive: 0.057. Still for that read-out and setting: the same measure for POLR1D (UniProt P0DPB5): inactive: 0.118.

In the case of PLXNB1 (UniProt O43157), the log2 fold change is inactive: 0.085.

Take POLRMT (UniProt O00411): the log2 fold change was inactive: 0.005. Regarding PLK1 (UniProt P53350), the log2 fold change was inactive: -0.223. As to PLIN3 isoform 2 (UniProt O60664), the log2 fold change was inactive: 0.317.

Turning to POLB (UniProt P06746), the log2 fold change is inactive: -0.16. As for POLR3D (UniProt P05423), the log2 fold change was inactive: -0.029.

Regarding PMM1 (UniProt Q92871), the log2 fold change is inactive: 0.094. As for PLXNA3 (UniProt P51805), the log2 fold change was inactive: -0.131.

On to PMVK (UniProt Q15126), for which the log2 fold change was inactive: -0.003. As for PLS3 (UniProt H7C4N2), the log2 fold change was inactive: 0.065.

Compound in a further assay: CN1CC[C@H](c2c(O)cc(O)c3c(=O)cc(-c4ccccc4Cl)oc23)[C@H](O)C1 [alvocidib]
Described as above. The method in brief:
as §1
In the case of POC1A (UniProt Q8NBT0), the log2 fold change was inactive: -0.008. For PLEKHJ1 (UniProt Q9NW61), the log2 fold change was inactive: 0.026. Turning to PLSCR3 (UniProt Q9NRY6), the log2 fold change was inactive: -0.087. Consider POLE (UniProt Q07864), for which the log2 fold change was inactive: -0.057. PNPLA6 (UniProt Q8IY17): the log2 fold change was inactive: 0.073. POLE4 (UniProt Q9NR33): the log2 fold change is inactive: -0.145. With POLR2J (UniProt P52435), the log2 fold change is inactive: -0.139. For the target POLR1D (UniProt P0DPB5), the log2 fold change is inactive: 0.216. Same read-out and setting: the same measure for PLPPR3 isoform 3 (UniProt Q6T4P5): inactive: 0.154; for PLEKHO2 (UniProt Q8TD55): inactive: -0.02; for POLD4 (UniProt Q9HCU8): inactive: -0.195. PORCN (UniProt Q9H237): the log2 fold change is inactive: -0.015. The same measure, in the same setting: the result for PPFIA3 (UniProt O75145) reads inactive: 0. For PPIA isoform 2 (UniProt P62937), the log2 fold change is inactive: 0.082. Consider POMT2 (UniProt Q9UKY4), for which the log2 fold change is inactive: -0.013.

On to PPHLN1 isoform 3 (UniProt Q8NEY8), for which the log2 fold change was inactive: -0.059.

Compound in a further assay: CN1CCc2c(c3ccccc3n2Cc2ccc(C(=O)NO)cc2)C1 [Tubastatin A]
Described as above. The method in brief:
as §1
For POC1A (UniProt Q8NBT0), the log2 fold change was inactive: 0.012. In the case of PM20D2 (UniProt Q8IYS1), the log2 fold change is inactive: -0.041. Take PNPLA6 (UniProt Q8IY17): the log2 fold change is inactive: -0.006. For the target POF1B isoform 1 (UniProt Q8WVV4), the log2 fold change was inactive: -0.298. As to POT1 (UniProt Q9NUX5), the log2 fold change was inactive: -0.008. POLE4 (UniProt Q9NR33): the log2 fold change was inactive: -0.068. Take POLR1D (UniProt P0DPB5): the log2 fold change was inactive: 0.051. As to POLR2E (UniProt P19388), the log2 fold change is inactive: -0.009. With PLEKHO2 (UniProt Q8TD55), the log2 fold change was inactive: 0.13. With POLD4 (UniProt Q9HCU8), the log2 fold change is inactive: 0.05.

PLK1 (UniProt P53350): the log2 fold change was inactive: -0.058. Turning to POMT1 (UniProt Q9Y6A1), the log2 fold change is inactive: -0.035. For POLB (UniProt P06746), the log2 fold change is inactive: 0.138. On to POLR3D (UniProt P05423), for which the log2 fold change was inactive: 1.53. For the target PPIA isoform 2 (UniProt P62937), the log2 fold change is inactive: -0.082. As to POMT2 (UniProt Q9UKY4), the log2 fold change is inactive: 0.144. In the case of PMM1 (UniProt Q92871), the log2 fold change was inactive: -0.018. With PLXNA3 (UniProt P51805), the log2 fold change was inactive: 0.24. Same read-out and setting: the same measure for POLG, A0A3B3IS91: inactive: -0.002. The same measure, in the same setting: the same measure for PPHLN1 isoform 3 (UniProt Q8NEY8): inactive: 0.229; for PMVK (UniProt Q15126): inactive: 0.229.

The values above are taken from the supplement of paper PMC10849652.
